{
  "source": "paper PMC8700025",
  "note": "No constants are given. Whether binding was seen depends on the method and setting. In cells and extracts the contact can be indirect. Here binding means that the protein was enriched with, or labelled near, the bait; the list need not be complete.",
  "data": [
    {"target": "TgGRA14 endogenously epitope-tagged at the C-terminus with 6x-HA (ME49Δku80 GRA14-HA6x) (Toxoplasma gondii (ME49, type II))", "test": "affinity purification with mass spectrometry; anti-HA magnetic beads on lysates of HFF infected with ME49Δku80 GRA14-HA6x or untagged ME49Δku80 (tachyzoite conditions 48 hpi; bradyzoite conditions 72 hpi also run); lysis in 50 mM Tris pH 7.6, 200 mM NaCl, 1% Triton X-100, 0.5% CHAPS; washes up to 300 mM NaCl; LC-MS/MS", "values": [
      {"binder": "TgGRA4 (protein, UniProt Q27002 21-345) GECSFGSHLADMAGLSGRHDKERHQAKKRYYHSMYGNQTPYPYANGQQASPPPQGQLLIIQNPDGSFMIVDQQGVPQVPQAAGGPGSPMNGGYYMPTGVYTAQVVPGTPGHPVQAIPQQPLRTQATATYYHPAAVPPPGPSVFVFTPSSVQPGAEVTPGYSGLQLRQQSQYGYSYPGTTSTPTPPPPASYGYPVFPAFPRLPAFSDSVSVSTEDSGLTGVKDSSSSESTVTPADEAASESEEGDKTSRKSKVKKGILTGLGVAATLAAAAAAAKAVKGFGGTRTSTAPAEAGKTELDDGYRPPPFNPRPSPYAELLKDLERMRKE", "binding": "binds"},
      {"binder": "Peflin (PEF1) (protein, UniProt Q9UBV8 1-284) MASYPYRQGCPGAAGQAPGAPPGSYYPGPPNSGGQYGSGLPPGGGYGGPAPGGPYGPPAGGGPYGHPNPGMFPSGTPGGPYGGAAPGGPYGQPPPSSYGAQQPGLYGQGGAPPNVDPEAYSWFQSVDSDHSGYISMKELKQALVNCNWSSFNDETCLMMINMFDKTKSGRIDVYGFSALWKFIQQWKNLFQQYDRDRSGSISYTELQQALSQMGYNLSPQFTQLLVSRYCPRSANPAMQLDRFIQVCTQLQVLTEAFREKDTAVQGNIRLSFEDFVTMTASRML", "binding": "binds"},
      {"binder": "TgGRA1 (protein, UniProt P13403 25-190) AEGGDNQSSAVSDRASLFGLLSGGTGQGLGIGESVDLEMMGNTYRVERPTGNPDLLKIAIKASDGSYSEVGNVNVEEVIDTMKSMQRDEDIFLRALNKGETVEEAIEDVAQAEGLNSEQTLQLEDAVSAVASVVQDEMKVIDDVQQLEKDKQQLKDDIGFLTGERE", "binding": "binds"}
    ]}
  ]
}
